Assay results: PubChem BioAssay AID743266 (National Center for Advancing Translational Sciences (NCATS), 2014)
Screen size: about 410,000 compounds; about 310 (0.076%) were called active. This list was built around the results that the source calls inconclusive (neither active nor inactive); the mix of calls is not that of the screen. Calls come from the whole dose curve; as a rule, active = well fitted activation curve with a large enough effect; inconclusive = small, poorly fitted or top-dose-only effect, or another doubt; inactive = no such curve, though single readings can be large or run the other way. Potencies beside an inconclusive call are fits to weak or partial responses and may not hold up.

Protein sequences, listed by entry. Tags and fused reporters are not part of them.
UniProt Q03431, whole entry, looked up: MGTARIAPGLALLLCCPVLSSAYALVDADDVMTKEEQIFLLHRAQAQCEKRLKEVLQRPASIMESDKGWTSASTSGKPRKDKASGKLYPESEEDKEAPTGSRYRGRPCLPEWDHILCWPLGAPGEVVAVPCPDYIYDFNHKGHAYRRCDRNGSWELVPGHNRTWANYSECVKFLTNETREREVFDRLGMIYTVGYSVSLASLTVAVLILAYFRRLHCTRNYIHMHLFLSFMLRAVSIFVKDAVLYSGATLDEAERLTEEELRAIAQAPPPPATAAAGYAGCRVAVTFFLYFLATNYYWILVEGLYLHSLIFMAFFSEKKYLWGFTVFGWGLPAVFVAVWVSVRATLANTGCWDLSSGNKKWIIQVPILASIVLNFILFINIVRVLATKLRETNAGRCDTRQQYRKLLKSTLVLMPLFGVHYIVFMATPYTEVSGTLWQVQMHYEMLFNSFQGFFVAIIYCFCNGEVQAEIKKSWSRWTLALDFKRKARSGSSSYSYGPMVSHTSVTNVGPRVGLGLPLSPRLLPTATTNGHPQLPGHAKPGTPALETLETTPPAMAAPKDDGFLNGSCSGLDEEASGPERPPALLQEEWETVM

molecular target: Parathyroid hormone/parathyroid hormone-related peptide receptor (Homo sapiens) (UniProt Q03431); experiment: qHTS for PTHR1 Agonists: Primary Screen; settings: HEK293 GP2 PTHR1 cells, GloSensor cAMP luminescence, 1 h; activation: at 115 µM (top of the series) unless noted; series mostly up to 115 µM; note: nearly all actives have a fitted effect of over 55% in size
Outline: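 HEK-293-derived GP2 cells expressing PTHR1 and a GloSensor cAMP reporter, 3,000/well, plated overnight, given luciferin plus IBMX (each 0.5 mM as added) for 1 h at 37 °C, then compound for 1 h at 37 °C. Luminescence was read after 15 min at room temperature.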
Potency is the fitted concentration of half-maximal effect.

Potency, inactive:
CN1CCCN(c2cc(-c3ccc4ccccc4c3)nc3ccnn23)CC1
COC(=O)c1ccc(Cl)c(-c2ccc(/C=N/NC(=O)Nc3ccccc3)o2)c1
O=C(Nc1cccc(Cl)c1)OCc1cncs1
CCc1ccccc1NC(=O)CCN1C(=O)c2ccccc2C1=O
CC(C)(C)n1nnnc1C(c1ccccc1)N1CCCN(Cc2ccc(F)cc2)CC1 (configuration not stated)
COc1cc(C2NC(=O)NC(c3ccccc3)=C2C(C)=O)c(Br)c(Br)c1O (configuration not stated)
CC(C)(C)NC(=O)C(c1cc2ccccc2o1)n1c(=O)c(-c2cc3ccccc3[nH]2)nc2ccccc21 (configuration not stated)
S=C(NCc1ccco1)NCC(c1ccco1)N1CCCCC1 (configuration not stated)
COc1ccc(CC(=O)N2CCN(c3ccccn3)CC2)cc1OC
CN(C)Cc1cc(C(C)(C)C)c(O)c(C(C)(C)C)c1
Cc1ccc(NC(=S)NC(=O)c2ccc(-c3ccc(Cl)cc3)o2)c(O)c1
COc1cccc(OCCCCN2CCCCC2)c1
CC(C)(C)c1ccc(-c2nc(SCC(=O)Nc3ccc(Cl)cc3)[nH]c(=O)c2C#N)cc1
COc1cc(C2CC(=O)Oc3c2c(=O)[nH]c2ccccc32)cc(OC)c1OC (configuration not stated)
O=C1[C@H]2[C@@H](c3ccccc3)N[C@]3(CCCN(Cc4ccccc4)C3=O)[C@H]2C(=O)N1Cc1ccccc1
c1ccc(CN=C2NN=C(c3cc4ccccc4o3)CS2)cc1
CCCS(=O)(=O)c1c(S(=O)(=O)CCC)c2cc(C(C)(C)C)ccn2c1C(=O)c1ccccc1
COc1ccc(N(CC(=O)N2CCN(Cc3ccccc3)CC2)S(C)(=O)=O)c(OC)c1

Quoted from the results shown for reference:
Potency, inactive:
CC(C)(C)NC(=O)C(c1cc2ccccc2o1)n1c(=O)c(-c2cc3ccccc3[nH]2)nc2ccccc21 (configuration not stated)
S=C(NCc1ccco1)NCC(c1ccco1)N1CCCCC1 (configuration not stated)
COc1ccc(CC(=O)N2CCN(c3ccccn3)CC2)cc1OC
CN(C)Cc1cc(C(C)(C)C)c(O)c(C(C)(C)C)c1

Next part:

Potency, inconclusive:
CCCCNc1nc2ccccc2nc1NS(=O)(=O)c1cccs1 3.55 µM [activator, partial curve]
O=C1/C(=C/c2ccc([N+](=O)[O-])cc2)C=C(c2ccccc2)N1c1ccccc1 50.1 µM [activator, partial curve, poor fit]
Cc1cccc(Cc2c(C)nc3nc(SCC(=O)O)nn3c2C)c1 11.2 µM [activator, partial curve, poor fit]
COc1cccc(C(O)c2ncc(-c3cccc4ccccc34)[nH]2)c1 (configuration not stated) 79.4 µM [activator, partial curve, poor fit]
O=C(NC(c1ccc(F)cc1)c1ccc2ccccc2n1)C1CCN(Cc2ccc(Oc3ccccc3)cc2)CC1 (configuration not stated) 20 µM [activator, single point]
COc1cccc(-c2nnc(-c3ccccc3NC(=O)c3cccc(C(F)(F)F)c3)o2)c1 5.01 µM [activator, partial curve]
Cn1c(=O)n(C)c2cc(N3CCOCC3)c(NC(=O)c3ccccc3Br)cc21 126 µM [activator, single point]
CC(=O)Cc1nsc(NC(=O)c2c(-c3ccccc3Cl)noc2C)n1 11.2 µM [activator, partial curve]
O=C(Nc1ccc(S(=O)(=O)Nc2ncccn2)cc1)c1ccc2ncsc2c1 126 µM [activator, single point]
Cc1ccc(OCc2n[nH]c(=S)n2Cc2ccccc2)cc1 126 µM [activator, single point]
CCOC(=O)c1c(C)c(C(=O)OCC)n(C)c1C 112 µM [activator, single point]
CSc1ccccc1OCc1cc(C(=O)N(C)CCc2c(C)n[nH]c2C)no1 112 µM [activator, partial curve, poor fit]
CCc1ccccc1NC(=O)c1ccc2c(O)c(S(=O)(=O)c3ccc(OC)cc3)c(=O)[nH]c2c1 39.8 µM [activator, partial curve, poor fit]
COc1ccc(-c2cc(C(=O)NN)[nH]n2)cc1OC 39.8 µM [activator, partial curve, poor fit]
CC1=C(c2ccc(C)c(C)c2)S(=O)(=O)N(Cc2ccc(C(=O)NCc3ccccc3F)cc2)C1=O 50.1 µM [activator, partial curve]
CCOc1ccc(-c2nc(CN3CCCCC3CCn3cccn3)c(C)o2)cc1 (configuration not stated) 3.55 µM [activator, full curve, poor fit]
Cc1cc(C)cc(Nc2cc(C(=O)NC3CCCCC3)c3ccccc3n2)c1 14.1 µM [activator, partial curve, poor fit]
O=C(Cn1ncc2c([nH]c3ccccc32)c1=O)NCCc1ccccc1 17.8 µM [activator, partial curve, poor fit]
Cc1ccc(-c2noc(-c3ccccc3NC(=O)C3CC(=O)N(c4ccccc4C)C3)n2)cc1 (configuration not stated) 141 µM [activator, single point]
CCOC(=O)c1cc2sc(C)cc2n1CC(=O)Nc1cccc(C)c1C 35.5 µM [activator, single point]
Cn1cnnc1SCC(=O)Nc1ccc(C#N)cc1 141 µM [activator, single point]
Cc1nn2c(C)c(C(=O)NC(C)(C)C)cnc2c1-c1ccc(F)cc1 7.08 µM [activator, full curve, poor fit]
COc1cc(C(=O)NCCCc2ccccc2)cc(OC)c1OC 112 µM [activator, single point]
Cc1noc(/C=C/c2ccccn2)c1[N+](=O)[O-] 50.1 µM [activator, partial curve, poor fit]
COC(=O)c1c(C)[nH]c(C(C)=O)c1C 20 µM [activator, single point]
CCN(C(=O)CSc1n[nH]c(N)n1)C1CCCCC1 17.8 µM [activator, partial curve, poor fit]
Cc1occc1C(=O)Nc1cnn(CCCC(=O)O)c1 126 µM [activator, single point]
O=C(NCC(=O)N1CCOCC1)c1ccc(Br)o1 6.31 µM [activator, full curve, poor fit]
COC(=O)[C@H](C)NC(=O)Nc1ccc(Oc2ccccc2)cc1 0.708 µM [activator, full curve]
Cc1cc(NC(=O)CSc2nnc3c(C)cc4ccccc4n23)no1 5.01 µM [activator, full curve, poor fit]
COc1cc(C2/C(=C(\O)c3ccc4c(c3)OCCO4)C(=O)C(=O)N2Cc2ccco2)ccc1O (configuration not stated) 89.1 µM [activator, partial curve, poor fit]
CC(C)Nc1nc(NC(C)C)nc(N(C#N)CCOc2ccc(Cl)cc2Cl)n1 25.1 µM [activator, partial curve, poor fit]
O=c1[nH]c2ccc(Cl)cc2c(O)c1Cc1ccccc1 126 µM [activator, single point]
Cn1c(=O)c2[nH]c(CCCC(=O)O)nc2n(Cc2ccccc2)c1=S 100 µM [activator, partial curve, poor fit]
CC(=O)Nc1ccc(S(=O)(=O)N2CCC(C(=O)N[C@@H](Cc3ccccc3)C(=O)O)CC2)cc1 5.01 µM [activator, full curve, poor fit]

activation, inconclusive:
COc1ccc(C(C(=O)NC(C)(C)C)N(C(=O)CNC(=O)c2cccs2)c2cccnc2)cc1OC (configuration not stated) 61.3% [activator]
CC(=O)Nc1ccc(Nc2cc(C)nc3c(-c4ccccc4)c(C)nn23)cc1 36.1% [activator]
CCOc1ccccc1NC(=O)Cn1c(=O)n(Cc2ccccc2)c(=O)c2cccnc21 42% [activator]
CCN(CC)S(=O)(=O)c1cccc(NC(=O)CCNC(=O)c2ccc([N+](=O)[O-])cc2)c1 -1.36% [activator]
O=C(O)C/C(=C\c1cc2c(cc1Br)OCO2)c1nc2ccccc2s1 34.4% [activator]
CC(C)n1c(=O)c2ccccc2n1Cc1cn(-c2ccccc2)nn1 35% [activator]
Cc1ccccc1NC(=O)c1nn(-c2ccc(F)c(F)c2)ccc1=O 20.9% [activator]
CC1=C(CC(=O)NCC(=O)NCC(=O)O)c2cc(F)ccc2/C1=C/c1ccc(S(C)=O)cc1 (configuration not stated) 35.3% [activator]
COc1ccc(CNC(=O)C2CCN(S(=O)(=O)N3CCC4(CC3)OCCO4)CC2)c(OC)c1 33% [activator]
N#Cc1c(NC(=O)COC(=O)c2ccc(F)cc2)sc2c1CCC2 -4.25% [activator] [at 57.5 µM]
Cn1ncc(C(=O)N=S(C)(=O)c2ccccc2)c1[N+](=O)[O-] (configuration not stated) 38.1% [activator]
Cc1cc(C)nc(SCC(=O)NNC(=O)c2cccs2)n1 2.89% [activator]
CCn1cc(C(=O)N2CCN(c3ccccc3)CC2)c(=O)c2cc(S(=O)(=O)N3CCOCC3)ccc21 36.8% [activator]
COc1ccc(-c2ccnc3c(C#N)cnn23)cc1 35.4% [activator]

Reprinted at random: two entries already listed.
activation, inconclusive:
CCN(CC)S(=O)(=O)c1cccc(NC(=O)CCNC(=O)c2ccc([N+](=O)[O-])cc2)c1 -1.36% [activator]
CC(=O)Nc1ccc(Nc2cc(C)nc3c(-c4ccccc4)c(C)nn23)cc1 36.1% [activator]
